The values below come from article PMC4019850.

These are yes or no findings as the source states them, for the method shown. Binding seen in cells or lysates may run through a third protein. For part of these data: A result given as binding can be weak or reduced; the word gives no strength. Sequences can lack the tags named with a protein.

Assay [1] deals with GST fusion of SCRIB PDZ 1-2 (human). Description: pull-down; GST fusions of SCRIB PDZ domains used to affinity purify extracts of E. coli cells expressing HIS-tagged DUSP26; only the target purified.
Assay [2] concerns the target GST fusion of the C-terminal SH3 domain of GRB2. The assay is described as follows: pull-down; 50 μg GST fusion of a GRB2 domain incubated with lysate (RIPA buffer) of HeLa transfected with Flag-PTPN21, in presence or absence of Y527F SRC; glutathione-Sepharose 4B, 4°C; blot with anti-Flag; only the target purified.
Assay [3] addresses GST fusion of the N-terminal SH3 domain of GRB2. The assay is described as above.

B1: HIS-tagged DUSP26 (enzyme, UniProt Q9BV47 1-211)
chain: MCPGNWLWASMTFMARFSRSSSRSPVRTRGTLEEMPTVQHPFLNVFELERLLYTGKTACNHADEVWPGLYLGDQDMANNRRELRRLGITHVLNASHSRWRGTPEAYEGLGIRYLGVEAHDSPAFDMSIHFQTAADFIHRALSQPGGKILVHCAVGVSRSATLVLAYLMLYHHLTLVEAIKKVKDHRGIIPNRGFLRQLLALDRRLRQGLEA
As for B1, the binding result in assay [1] is “no binding”.

B2: Flag-PTPN21 (enzyme, UniProt Q16825 1-1174)
chain: MPLPFGLKLKRTRRYTVSSKSCLVARIQLLNNEFVEFTLSVESTGQESLEAVAQRLELREVTYFSLWYYNKQNQRRWVDLEKPLKKQLDKYALEPTVYFGVVFYVPSVSQLQQEITRYQYYLQLKKDILEGSIPCTLEQAIQLAGLAVQADFGDFDQYESQDFLQKFALFPVGWLQDEKVLEEATQKVALLHQKYRGLTAPDAEMLYMQEVERMDGYGEESYPAKDSQGSDISIGACLEGIFVKHKNGRHPVVFRWHDIANMSHNKSFFALELANKEETIQFQTEDMETAKYIWRLCVARHKFYRLNQCNLQTQTVTVNPIRRRSSSRMSLPKPQPYVMPPPPQLHYNGHYTEPYASSQDNLFVPNQNGYYCHSQTSLDRAQIDLNGRIRNGSVYSAHSTNSLNNPQPYLQPSPMSSNPSITGSDVMRPDYLPSHRHSAVIPPSYRPTPDYETVMKQLNRGLVHAERQSHSLRNLNIGSSYAYSRPAALVYSQPEIREHAQLPSPAAAHCPFSLSYSFHSPSPYPYPAERRPVVGAVSVPELTNAQLQAQDYPSPNIMRTQVYRPPPPYPPPRPANSTPDLSRHLYISSSNPDLITRRVHHSVQTFQEDSLPVAHSLQEVSEPLTAARHAQLHKRNSIEVAGLSHGLEGLRLKERTLSASAAEVAPRAVSVGSQPSVFTERTQREGPEEAEGLRYGHKKSLSDATMLIHSSEEEEDEDFEEESGARAPPARAREPRPGLAQDPPGCPRVLLAGPLHILEPKAHVPDAEKRMMDSSPVRTTAEAQRPWRDGLLMPSMSESDLTTSGRYRARRDSLKKRPVSDLLSGKKNIVEGLPPLGGMKKTRVDAKKIGPLKLAALNGLSLSRVPLPDEGKEVATRATNDERCKILEQRLEQGMVFTEYERILKKRLVDGECSTARLPENAERNRFQDVLPYDDVRVELVPTKENNTGYINASHIKVSVSGIEWDYIATQGPLQNTCQDFWQMVWEQGIAIIAMVTAEEEGGREKSFRYWPRLGSRHNTVTYGRFKITTRFRTDSGCYATTGLKMKHLLTGQERTVWHLQYTDWPEHGCPEDLKGFLSYLEEIQSVRRHTNSTSDPQSPNPPLLVHCSAGVGRTGVVILSEIMIACLEHNEVLDIPRVLDMLRQQRMMLVQTLCQYTFVYRVLIQFLKSSRLI
As for B2, the binding entry in assay [2] and in assay [3] was “binds” throughout.
